In article PMC9363421:
Results are given in words; binding and its absence hold for the method and conditions named. Binding seen in cells or lysates may run through a third protein. These calls come from enrichment with a bait or labelling near it, and not all partners need be listed.

Sequences of proteins named here, by UniProt entry; tags and fusion partners are left off. A change or cut given only in a name is not applied to a line headed by its entry.
UniProt Q06210: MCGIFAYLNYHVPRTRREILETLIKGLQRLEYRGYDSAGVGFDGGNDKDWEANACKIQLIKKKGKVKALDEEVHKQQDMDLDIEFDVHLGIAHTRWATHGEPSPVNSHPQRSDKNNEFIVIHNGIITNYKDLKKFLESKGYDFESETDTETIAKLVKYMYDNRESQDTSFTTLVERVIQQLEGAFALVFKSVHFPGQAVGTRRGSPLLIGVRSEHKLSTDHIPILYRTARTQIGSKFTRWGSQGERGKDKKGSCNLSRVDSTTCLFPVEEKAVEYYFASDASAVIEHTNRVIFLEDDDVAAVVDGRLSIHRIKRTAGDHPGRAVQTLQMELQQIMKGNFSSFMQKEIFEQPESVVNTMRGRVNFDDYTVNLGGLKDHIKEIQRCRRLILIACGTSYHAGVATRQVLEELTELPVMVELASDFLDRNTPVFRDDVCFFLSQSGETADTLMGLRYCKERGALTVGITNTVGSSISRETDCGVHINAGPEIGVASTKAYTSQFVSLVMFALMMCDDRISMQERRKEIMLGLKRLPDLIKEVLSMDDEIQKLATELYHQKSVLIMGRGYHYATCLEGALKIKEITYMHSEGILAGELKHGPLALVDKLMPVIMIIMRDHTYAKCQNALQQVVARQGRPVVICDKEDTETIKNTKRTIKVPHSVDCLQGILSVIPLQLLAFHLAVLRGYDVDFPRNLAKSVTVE

Target: Flag-GFAT1 (glutamine-fructose-6-phosphate amidotransferase 1) (human) (UniProt Q06210)
Assay: affinity purification with mass spectrometry; Flag-GFAT1 immunoprecipitated from A549 cells with stable expression, 8 h glucose deprivation; mass spectrometry of the precipitates

binding: binds
B1: TTLL5, endogenous (enzyme, UniProt Q6EMB2 1-1281)
chain: MPIVMARDLEETASSSEDEEVISQEDHPCIMWTGGCRRIPVLVFHADAILTKDNNIRVIGERYHLSYKIVRTDSRLVRSILTAHGFHEVHPSSTDYNLMWTGSHLKPFLLRTLSEAQKVNHFPRSYELTRKDRLYKNIIRMQHTHGFKAFHILPQTFLLPAEYAEFCNSYSKDRGPWIVKPVASSRGRGVYLINNPNQISLEENILVSRYINNPLLIDDFKFDVRLYVLVTSYDPLVIYLYEEGLARFATVRYDQGAKNIRNQFMHLTNYSVNKKSGDYVSCDDPEVEDYGNKWSMSAMLRYLKQEGRDTTALMAHVEDLIIKTIISAELAIATACKTFVPHRSSCFELYGFDVLIDSTLKPWLLEVNLSPSLACDAPLDLKIKASMISDMFTVVGFVCQDPAQRASTRPIYPTFESSRRNPFQKPQRCRPLSASDAEMKNLVGSAREKGPGKLGGSVLGLSMEEIKVLRRVKEENDRRGGFIRIFPTSETWEIYGSYLEHKTSMNYMLATRLFQDRMTADGAPELKIESLNSKAKLHAALYERKLLSLEVRKRRRRSSRLRAMRPKYPVITQPAEMNVKTETESEEEEEVALDNEDEEQEASQEESAGFLRENQAKYTPSLTALVENTPKENSMKVREWNNKGGHCCKLETQELEPKFNLMQILQDNGNLSKMQARIAFSAYLQHVQIRLMKDSGGQTFSASWAAKEDEQMELVVRFLKRASNNLQHSLRMVLPSRRLALLERRRILAHQLGDFIIVYNKETEQMAEKKSKKKVEEEEEDGVNMENFQEFIRQASEAELEEVLTFYTQKNKSASVFLGTHSKISKNNNNYSDSGAKGDHPETIMEEVKIKPPKQQQTTEIHSDKLSRFTTSAEKEAKLVYSNSSSGPTATLQKIPNTHLSSVTTSDLSPGPCHHSSLSQIPSAIPSMPHQPTILLNTVSASASPCLHPGAQNIPSPTGLPRCRSGSHTIGPFSSFQSAAHIYSQKLSRPSSAKAGSCYLNKHHSGIAKTQKEGEDASLYSKRYNQSMVTAELQRLAEKQAARQYSPSSHINLLTQQVTNLNLATGIINRSSASAPPTLRPIISPSGPTWSTQSDPQAPENHSSSPGSRSLQTGGFAWEGEVENNVYSQATGVVPQHKYHPTAGSYQLQFALQQLEQQKLQSRQLLDQSRARHQAIFGSQTLPNSNLWTMNNGAGCRISSATASGQKPTTLPQKVVPPPSSCASLVPKPPPNHEQVLRRATSQKASKGSSAEGQLNGLQSSLNPAAFVPITSSTDPAHTKI
